From patent US10125125B2, “N-(heteroaryl)-sulfonamide derivatives useful as S100-inhibitors” (Active Biotech AB, priority 2013, dated 2018)

Test: Prodrug assay: LC-MS analysis of the formulation samples

Row | SMILES | Parent content found in formulation solution (Formulation solution 0.1 mg/ml) [%] | Parent content found in formulation solution (Formulation solution 1 mg/ml) [%]
1 | O=S(=O)(Cc1ccc(Cl)c(Cl)c1)Nc1ncc(Br)nc1O [Example 75, N-(5-bromo-3-hydroxypyrazin-2-yl)-1-(3,4-dichlorophenyl)methanesulfonamide] | <0.8 | <0.8
2 | O=S(=O)(Nc1cnc(Cl)cc1O)c1cc(Cl)sc1Cl [Example 73, 2,5-dichloro-N-(6-chloro-4-hydroxypyridin-3-yl)thiophene-3-sulfonamide] | <0.7 | <0.7
3 | O=S(=O)(Cc1cc(Cl)cc(Cl)c1)Nc1ncc(Cl)cc1O [Example 9, N-(5-chloro-3-hydroxypyridin-2-yl)-1-(3,5-dichlorophenyl)methanesulfonamide] | <0.1 | <0.1
